The values below are quoted from earlier work in paper PMC3956856, “Interaction of Kinase-Interaction-Motif Protein Tyrosine Phosphatases with the Mitogen-Activated Protein Kinase ERK2” (PLoS ONE, 2014).

The subject of the data set is p38α. The conditions noted are these: resting-state complex, SAXS; ref [14], [15]; cited from earlier work.

B1: HePTP: HePTP (residues 15–339), hematopoietic protein tyrosine phosphatase (protein, UniProt P35236 15-339, looked up, fragment)
chain: TLSLGAAMTQPPPEKTPAKKHVRLQERRGSNVALMLDVRSLGAVEPICSVNTPREVTLHFLRTAGHPLTRWALQRQPPSPKQLEEEFLKIPSNFVSPEDLDIPGHASKDRYKTILPNPQSRVCLGRAQSQEDGDYINANYIRGYDGKEKVYIATQGPMPNTVSDFWEMVWQEEVSLIVMLTQLREGKEKCVHYWPTEEETYGPFQIRIQDMKECPEYTVRQLTIQYQEERRSVKHILFSAWPDHQTPESAGPLLRLVAEVEESPETAAHPGPIVVHCSAGIGRTGCFIATRIGCQQLKARGEVDILGIVCQLRLDRGGMIQTAEQ
Regarding B1, the “shape of the complex with p38α (in words)” value (from here on “shape of the complex”) was “extended”.

B2: STEP (residues 213-539, mouse) (domain or fragment, UniProt P54830 213-539, looked up)
chain: MGLQERRGSNVSLTLDMCTPGCNEEGFGYLVSPREESAHEYLLSASRVLRAEELHEKALDPFLLQAEFFEIPMNFVDPKEYDIPGLVRKNRYKTILPNPHSRVRLTSPDPEDPLSSYINANYIRGYSGEEKVYIATQGPIVSTVADFWRMVWQERTPIIVMITNIEEMNEKCTEYWPEEQVVHDGVEITVQKVIHTEDYRLRLISLRRGTEERSLKHYWFTSWPDQKTPDRAPPLLHLVREVEEAAQQEGPHCSPIIVHCSAGIGRTGCFIATSICCQQLRREGVVDILKTTCQLRQDRGGMIQTCEQYQFVHHAMSLYEKQLSLQS
notes: STEP (PTPN5, striatal enriched protein tyrosine phosphatase), mouse, residues 213-539 (KIM, KIS and catalytic domain); The results loosely call this construct 'full-length STEP'; the construct is residues 213-539; also called STEP_(213-539); PTPN5; source: final SEC
B2: the “shape of the complex” value is reported as “compact”.

B3: PTPSL (residues 332-655, human) (domain or fragment, UniProt Q15256 332-655, looked up)
chain: GLQERRGSNVSLTLDMSSLGNIEPFVSIPTPREKVAMEYLQSASRILTRSQLRDVVASSHLLQSEFMEIPMNFVDPKEIDIPRHGTKNRYKTILPNPLSRVCLRPKNVTDSLSTYINANYIRGYSGKEKAFIATQGPMINTVDDFWQMVWQEDSPVIVMITKLKEKNEKCVLYWPEKRGIYGKVEVLVISVNECDNYTIRNLVLKQGSHTQHVKHYWYTSWPDHKTPDSAQPLLQLMLDVEEDRLASQGRGPVVVHCSAGIGRTGCFIATSIGCQQLKEEGVVDALSIVCQLRMDRGGMVQTSEQYEFVHHALCLYESRLSAET
notes: PTPSL/PTPBR7 (PTPRR, PTP STEP-like), human, residues 332-655 (KIM, KIS and catalytic domain); The results loosely call this construct 'full-length PTPSL'; the construct is residues 332-655; also called PTPBR7; PTPRR; source: final SEC
For the molecule B3, the “shape of the complex” value is recorded as “extended in solution”.
